Among the data in paper PMC8535089 are binding values, retold here.

Amino acid sequences for entries named in this document (tags omitted). Residues count along the entry.
UniProt Q13586, residues 23-685: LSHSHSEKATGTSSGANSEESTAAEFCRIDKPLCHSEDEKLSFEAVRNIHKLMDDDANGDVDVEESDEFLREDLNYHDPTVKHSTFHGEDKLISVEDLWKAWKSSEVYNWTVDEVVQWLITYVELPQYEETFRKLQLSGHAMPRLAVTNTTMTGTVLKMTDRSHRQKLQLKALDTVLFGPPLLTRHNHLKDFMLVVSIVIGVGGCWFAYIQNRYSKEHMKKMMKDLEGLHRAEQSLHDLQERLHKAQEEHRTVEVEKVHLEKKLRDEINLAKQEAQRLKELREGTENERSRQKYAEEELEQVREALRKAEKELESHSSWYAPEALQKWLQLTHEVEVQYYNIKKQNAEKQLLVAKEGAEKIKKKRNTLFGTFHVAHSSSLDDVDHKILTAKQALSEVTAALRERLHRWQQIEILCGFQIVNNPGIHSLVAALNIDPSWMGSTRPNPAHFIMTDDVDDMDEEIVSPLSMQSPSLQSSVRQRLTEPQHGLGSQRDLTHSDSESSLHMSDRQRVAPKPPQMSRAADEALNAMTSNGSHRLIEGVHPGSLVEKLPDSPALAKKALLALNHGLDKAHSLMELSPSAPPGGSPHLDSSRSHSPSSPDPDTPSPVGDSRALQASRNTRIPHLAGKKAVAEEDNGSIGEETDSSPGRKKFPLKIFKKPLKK
UniProt P83093, residues 15-746: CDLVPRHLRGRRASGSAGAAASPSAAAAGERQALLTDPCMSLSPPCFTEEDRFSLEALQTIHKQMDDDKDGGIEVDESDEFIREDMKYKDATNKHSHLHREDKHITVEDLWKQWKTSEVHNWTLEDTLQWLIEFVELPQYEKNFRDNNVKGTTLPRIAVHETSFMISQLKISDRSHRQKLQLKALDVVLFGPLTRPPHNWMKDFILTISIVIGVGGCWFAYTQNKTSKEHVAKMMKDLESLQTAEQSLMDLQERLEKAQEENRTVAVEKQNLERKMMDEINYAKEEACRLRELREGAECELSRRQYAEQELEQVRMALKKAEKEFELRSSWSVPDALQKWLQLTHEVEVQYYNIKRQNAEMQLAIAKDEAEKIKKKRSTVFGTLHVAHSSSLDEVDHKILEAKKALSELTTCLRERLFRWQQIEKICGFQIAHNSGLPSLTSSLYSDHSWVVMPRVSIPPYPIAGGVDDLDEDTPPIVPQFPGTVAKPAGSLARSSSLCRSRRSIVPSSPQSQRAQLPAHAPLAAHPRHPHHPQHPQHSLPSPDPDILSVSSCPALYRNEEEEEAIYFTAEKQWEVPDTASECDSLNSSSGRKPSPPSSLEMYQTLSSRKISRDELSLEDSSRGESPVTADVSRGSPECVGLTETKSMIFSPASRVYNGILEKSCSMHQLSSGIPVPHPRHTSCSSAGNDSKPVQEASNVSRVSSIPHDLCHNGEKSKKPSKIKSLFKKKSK

The target of this assay is human STIM1 C-terminally tagged with BioID construct (STIM1-BioID) (human) (UniProt Q13586). In words: proximity labelling; BioID: STIM1-BioID stably expressed in MEF, 10 µM biotin in the media for 16 h, lysis in RIPA buffer, biotinylated proteins collected on streptavidin beads, LC/MS/MS with label-free quantification, four replicates, against control MEF.

Results are given in words; binding and its absence hold for the method and conditions named. In cells and extracts the contact can be indirect. Here binding means that the protein was enriched with, or labelled near, the bait; the list need not be complete.

On to STIM2 (from UniProt P83093 15-746), for which the binding entry is on record as “binds”.
